# Measurements from the supplement of paper PMC8728848.
# This is one part of the list.
# Key:
# Assay in all cases: glycan array binding signal (z-score within array); higher = stronger binding
# Conditions in all cases: glycan notation: IUPAC condensed, linker removed
# [1] = molecular target: Gal3S(b1-3)[Fuc(a1-4)]GlcNAc
# In short: (§1)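 The binding signal is a Z-score computed within each array. Data were drawn from 3228 arrays in the Consortium for Functional Glycomics database, restricted to those with a known protein sequence. Scores were averaged over arrays of the same protein sequence at different concentrations or buffers, and over linkers, and negative values can be taken as non-binding.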
# [2] = molecular target: Gal3S(b1-4)Glc
# In short: as §1
# [3] = molecular target: Gal3S(b1-4)Glc6S
# In short: as §1
# [4] = molecular target: Gal3S(b1-4)GlcNAc
# In short: as §1
# [5] = molecular target: Gal3S(b1-4)[Fuc(a1-3)]Glc6S
# In short: as §1
# [6] = molecular target: Gal3S(b1-4)[Fuc(a1-3)]GlcNAc
# In short: as §1
# [7] = molecular target: Gal3S(b1-4)[Fuc(a1-3)]GlcNAc6S
# In short: as §1
# [8] = molecular target: Gal3S4S(b1-4)GlcNAc
# In short: as §1
# [9] = molecular target: Gal3S6S(b1-4)GlcNAc
# In short: as §1
# [10] = molecular target: Gal3S6S(b1-4)GlcNAc6S
# In short: as §1
# [11] = molecular target: Gal4S(b1-4)GlcNAc
# In short: as §1
# [12] = molecular target: Gal4S6S(b1-4)GlcNAc
# In short: as §1
# [13] = molecular target: Gal6P(b1-4)GlcNAc
# In short: as §1
# [14] = molecular target: Gal6S(b1-3)GlcNAc
# In short: as §1
# [15] = molecular target: Gal6S(b1-3)GlcNAc6S
# In short: as §1
# [16] = molecular target: Gal6S(b1-4)Glc
# In short: as §1
# [17] = molecular target: Gal6S(b1-4)Glc6S
# In short: as §1
# [18] = molecular target: Gal6S(b1-4)GlcNAc
# In short: as §1
# [19] = molecular target: Gal6S(b1-4)GlcNAc6S
# In short: as §1
# [20] = molecular target: GalNAc(a1-3)Gal
# In short: as §1
# [21] = molecular target: GalNAc(a1-3)GalNAc
# In short: as §1
# [22] = molecular target: GalNAc(a1-3)GalNAc(b1-3)Gal(a1-4)Gal(b1-4)Glc
# In short: as §1
# [23] = molecular target: GalNAc(a1-3)GalNAc(b1-3)Gal(a1-4)Gal(b1-4)GlcNAc
# In short: as §1
# [24] = molecular target: GalNAc(b1-3)Gal
# In short: as §1
# [25] = molecular target: GalNAc(b1-3)Gal(a1-4)Gal(b1-4)GlcNAc
# In short: as §1
# [26] = molecular target: GalNAc(b1-3)Gal(a1-4)Gal(b1-4)GlcNAc(b1-3)Gal(b1-4)Glc
# In short: as §1
# [27] = molecular target: GalNAc(b1-3)Gal(a1-6)Gal(b1-4)Glc
# In short: as §1
# [28] = molecular target: GalNAc(b1-3)GalNAc
# In short: as §1
# [29] = molecular target: GalNAc(b1-3)GlcNAc
# In short: as §1
# [30] = molecular target: GalNAc(b1-4)Gal(b1-4)Glc
# In short: as §1
binder,measurement,setting,value
"CcfD (Bacteroides vulgatus), A6KYX8 (protein) MKYKNYFKSIIYLALGAFTLGSCEDFLDRQEDEKLTFDKIWESRNTTQQYWLNAMSFLPNENGSLQGDTEPYLGASDECTIAYDRQYRWINFGTWNPSQVPYYKMDHYYKGIRECNIFLQNVYKCSDPLVTKDQLDEWYWQTRFARAYYYFLMMRDYGPVFLLGDDLLDFTASTEELYRPRNTWDQCVNYVVSEMTQCAESGVVLQQSDLPAAKWGLATVGTCHAVISRLLLYSARPLFNGNKLYSTVKNPDAPDFPELSGVKLFPELDNTKWQKAAEAAKKLIDNPCYELYRAGNDNPYEDYYGVTHETWNKELIWTDRYNGLFSWGVGTVPTGVAGTAYGAVGPTQALVDAYAMNTGWYPITGYEADGTPIVEPLSGYELASELEKSSWIYPSGGWSNKADFEIEAPNMYKDREPRFYVTVFFGGNQWLHGNSATSISFAKGGNGNKSHDYPKSGYLCNRFYDHKLNSSEGQWGNITFPVFRLGEIYLNFIEAVLECKKNGVALDPSYEALAMEKWADLRKRAGLDPITSIYGQVSTEELIQLCRKERQIELAFERHRYFDTRTWMIATQTDNGKMYGMNTSCPLDAGMKGTETPDGFWERTAFETRVFQNKHYLYPFSQRELDRNKLLTQNYGW",glycan array binding signal (z-score),[1],1.02
same,glycan array binding signal (z-score),[2],1.22
same,glycan array binding signal (z-score),[3],-0.172
same,glycan array binding signal (z-score),[4],0.519
same,glycan array binding signal (z-score),[5],0.298
same,glycan array binding signal (z-score),[6],-0.317
same,glycan array binding signal (z-score),[7],0.595
same,glycan array binding signal (z-score),[8],0.003
same,glycan array binding signal (z-score),[9],1.03
same,glycan array binding signal (z-score),[10],2.22
same,glycan array binding signal (z-score),[11],0.694
same,glycan array binding signal (z-score),[12],-0.282
same,glycan array binding signal (z-score),[13],-0.653
same,glycan array binding signal (z-score),[14],1.23
same,glycan array binding signal (z-score),[15],1.13
same,glycan array binding signal (z-score),[16],0.254
same,glycan array binding signal (z-score),[17],-1.04
same,glycan array binding signal (z-score),[18],1.51
same,glycan array binding signal (z-score),[19],0.186
same,glycan array binding signal (z-score),[20],0.287
same,glycan array binding signal (z-score),[21],-1.07
same,glycan array binding signal (z-score),[22],0.191
same,glycan array binding signal (z-score),[23],1.65
same,glycan array binding signal (z-score),[24],-0.404
same,glycan array binding signal (z-score),[25],0.125
same,glycan array binding signal (z-score),[26],-0.52
same,glycan array binding signal (z-score),[27],-0.978
same,glycan array binding signal (z-score),[28],-0.805
same,glycan array binding signal (z-score),[29],-0.241
same,glycan array binding signal (z-score),[30],-0.043

# Shown with tabs: part of the list above
binder	measurement	setting	value
CcfD (Bacteroides vulgatus), A6KYX8 (protein) MKYKNYFKSIIYLALGAFTLGSCEDFLDRQEDEKLTFDKIWESRNTTQQYWLNAMSFLPNENGSLQGDTEPYLGASDECTIAYDRQYRWINFGTWNPSQVPYYKMDHYYKGIRECNIFLQNVYKCSDPLVTKDQLDEWYWQTRFARAYYYFLMMRDYGPVFLLGDDLLDFTASTEELYRPRNTWDQCVNYVVSEMTQCAESGVVLQQSDLPAAKWGLATVGTCHAVISRLLLYSARPLFNGNKLYSTVKNPDAPDFPELSGVKLFPELDNTKWQKAAEAAKKLIDNPCYELYRAGNDNPYEDYYGVTHETWNKELIWTDRYNGLFSWGVGTVPTGVAGTAYGAVGPTQALVDAYAMNTGWYPITGYEADGTPIVEPLSGYELASELEKSSWIYPSGGWSNKADFEIEAPNMYKDREPRFYVTVFFGGNQWLHGNSATSISFAKGGNGNKSHDYPKSGYLCNRFYDHKLNSSEGQWGNITFPVFRLGEIYLNFIEAVLECKKNGVALDPSYEALAMEKWADLRKRAGLDPITSIYGQVSTEELIQLCRKERQIELAFERHRYFDTRTWMIATQTDNGKMYGMNTSCPLDAGMKGTETPDGFWERTAFETRVFQNKHYLYPFSQRELDRNKLLTQNYGW	glycan array binding signal (z-score)	[6]	-0.317
same	glycan array binding signal (z-score)	[7]	0.595
